Test results from PMC10433880.
These are yes or no findings as the source states them, for the method shown. In cells and extracts the contact can be indirect. Some binding calls cover weakened binding; strength is not graded here.

Molecular target: T1, Takeda G protein-coupled receptor 5 (mouse (endogenous in mouse liver tissue)) (UniProt Q80SS6)
T1 sequence: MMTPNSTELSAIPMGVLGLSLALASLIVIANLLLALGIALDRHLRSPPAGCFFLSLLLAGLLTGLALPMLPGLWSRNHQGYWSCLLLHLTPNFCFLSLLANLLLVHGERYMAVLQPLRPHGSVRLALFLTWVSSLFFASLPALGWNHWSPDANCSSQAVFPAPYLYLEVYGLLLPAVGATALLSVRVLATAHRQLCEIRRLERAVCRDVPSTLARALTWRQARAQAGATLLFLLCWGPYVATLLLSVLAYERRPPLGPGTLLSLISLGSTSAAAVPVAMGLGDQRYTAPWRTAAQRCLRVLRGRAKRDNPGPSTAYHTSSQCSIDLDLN
Assay: co-IP; co-immunoprecipitation with anti-TGR5 from liver tissue of Mdr2+/+, Mdr2-/- and hP-MSC-treated Mdr2-/- mice; Western blotting of TGR5 and Pellino3; endogenous proteins

- binding: binds
B1: Pellino3 (protein, UniProt Q8BXR6 1-445)
chain: MVLEGNPDVGSPRTSDLQHPGSQGSCILSCPGEEALAGEEPIKYGELIVLGYNGCLASGDKGRRRSRLALSRRPHANGVKPDVMHHISTPLVSKALSNRGQHSISFTLSRSHSVIVEYTHDSDKDMFQIGRSTENMIDFVVTDTSPGGGATEGPSAQSTISRYACRILCDRRPPYTARIYAAGFDASSNIFLGERAAKWRTPDGLMDGLTTNGVLVMHPAGGFSEDSAPGVWREISVCGNVYTLRDSRSAQQRGKLVENESNVLQDGSLIDLCGATLLWRTPAGLLRAPTLKQLEAQRQEANAARPQCPVGLSTLAFPSPARGRTAPDKQQPWVYVRCGHVHGYHGWGCRRERGPQERECPLCRLVGPYVPLWLGQEAGLCLDPGPPSHAFAPCGHVCSEKTARYWAQTPLPHGTHAFHAACPFCGAWLTGELGCVRLIFQGPLD
